Source: doi:10.1101/2022.03.04.483005

The chains behind the UniProt entries cited, without tags or fusion partners.
UniProt P38181: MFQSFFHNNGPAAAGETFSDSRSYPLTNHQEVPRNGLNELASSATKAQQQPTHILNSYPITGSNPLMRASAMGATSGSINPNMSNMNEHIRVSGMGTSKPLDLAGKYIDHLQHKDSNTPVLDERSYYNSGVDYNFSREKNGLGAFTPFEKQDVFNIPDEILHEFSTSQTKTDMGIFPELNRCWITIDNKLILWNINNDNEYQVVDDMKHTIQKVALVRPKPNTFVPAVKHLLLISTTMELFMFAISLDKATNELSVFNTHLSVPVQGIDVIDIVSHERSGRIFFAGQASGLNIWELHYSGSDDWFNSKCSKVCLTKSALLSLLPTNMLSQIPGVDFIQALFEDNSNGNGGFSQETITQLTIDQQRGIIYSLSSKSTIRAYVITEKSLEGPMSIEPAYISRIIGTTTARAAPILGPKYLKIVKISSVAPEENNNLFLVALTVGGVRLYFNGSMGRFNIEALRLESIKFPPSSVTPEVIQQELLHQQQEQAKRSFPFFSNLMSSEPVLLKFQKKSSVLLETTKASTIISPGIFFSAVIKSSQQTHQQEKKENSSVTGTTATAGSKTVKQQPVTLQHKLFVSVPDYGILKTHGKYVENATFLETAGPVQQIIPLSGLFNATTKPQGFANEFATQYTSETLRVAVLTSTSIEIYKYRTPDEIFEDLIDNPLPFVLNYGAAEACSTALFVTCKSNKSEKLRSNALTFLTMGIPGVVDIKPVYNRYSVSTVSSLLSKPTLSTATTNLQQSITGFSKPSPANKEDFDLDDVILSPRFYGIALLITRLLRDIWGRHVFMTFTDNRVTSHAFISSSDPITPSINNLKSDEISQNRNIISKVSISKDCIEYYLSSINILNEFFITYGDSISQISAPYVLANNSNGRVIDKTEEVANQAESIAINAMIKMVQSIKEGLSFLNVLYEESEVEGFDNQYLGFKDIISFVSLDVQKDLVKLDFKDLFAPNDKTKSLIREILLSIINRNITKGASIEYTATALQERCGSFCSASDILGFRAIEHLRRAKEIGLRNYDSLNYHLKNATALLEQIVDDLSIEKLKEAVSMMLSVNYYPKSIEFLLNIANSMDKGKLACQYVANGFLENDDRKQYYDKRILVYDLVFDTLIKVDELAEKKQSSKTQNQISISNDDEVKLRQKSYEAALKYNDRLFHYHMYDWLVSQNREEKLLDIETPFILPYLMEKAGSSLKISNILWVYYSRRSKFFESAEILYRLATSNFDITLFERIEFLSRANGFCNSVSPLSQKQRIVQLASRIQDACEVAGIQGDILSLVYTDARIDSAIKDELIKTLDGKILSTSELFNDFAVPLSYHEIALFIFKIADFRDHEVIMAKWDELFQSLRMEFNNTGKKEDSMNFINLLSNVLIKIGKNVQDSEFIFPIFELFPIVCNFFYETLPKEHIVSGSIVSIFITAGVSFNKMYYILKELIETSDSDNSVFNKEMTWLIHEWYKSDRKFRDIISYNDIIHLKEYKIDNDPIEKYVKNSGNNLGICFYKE
UniProt P40457: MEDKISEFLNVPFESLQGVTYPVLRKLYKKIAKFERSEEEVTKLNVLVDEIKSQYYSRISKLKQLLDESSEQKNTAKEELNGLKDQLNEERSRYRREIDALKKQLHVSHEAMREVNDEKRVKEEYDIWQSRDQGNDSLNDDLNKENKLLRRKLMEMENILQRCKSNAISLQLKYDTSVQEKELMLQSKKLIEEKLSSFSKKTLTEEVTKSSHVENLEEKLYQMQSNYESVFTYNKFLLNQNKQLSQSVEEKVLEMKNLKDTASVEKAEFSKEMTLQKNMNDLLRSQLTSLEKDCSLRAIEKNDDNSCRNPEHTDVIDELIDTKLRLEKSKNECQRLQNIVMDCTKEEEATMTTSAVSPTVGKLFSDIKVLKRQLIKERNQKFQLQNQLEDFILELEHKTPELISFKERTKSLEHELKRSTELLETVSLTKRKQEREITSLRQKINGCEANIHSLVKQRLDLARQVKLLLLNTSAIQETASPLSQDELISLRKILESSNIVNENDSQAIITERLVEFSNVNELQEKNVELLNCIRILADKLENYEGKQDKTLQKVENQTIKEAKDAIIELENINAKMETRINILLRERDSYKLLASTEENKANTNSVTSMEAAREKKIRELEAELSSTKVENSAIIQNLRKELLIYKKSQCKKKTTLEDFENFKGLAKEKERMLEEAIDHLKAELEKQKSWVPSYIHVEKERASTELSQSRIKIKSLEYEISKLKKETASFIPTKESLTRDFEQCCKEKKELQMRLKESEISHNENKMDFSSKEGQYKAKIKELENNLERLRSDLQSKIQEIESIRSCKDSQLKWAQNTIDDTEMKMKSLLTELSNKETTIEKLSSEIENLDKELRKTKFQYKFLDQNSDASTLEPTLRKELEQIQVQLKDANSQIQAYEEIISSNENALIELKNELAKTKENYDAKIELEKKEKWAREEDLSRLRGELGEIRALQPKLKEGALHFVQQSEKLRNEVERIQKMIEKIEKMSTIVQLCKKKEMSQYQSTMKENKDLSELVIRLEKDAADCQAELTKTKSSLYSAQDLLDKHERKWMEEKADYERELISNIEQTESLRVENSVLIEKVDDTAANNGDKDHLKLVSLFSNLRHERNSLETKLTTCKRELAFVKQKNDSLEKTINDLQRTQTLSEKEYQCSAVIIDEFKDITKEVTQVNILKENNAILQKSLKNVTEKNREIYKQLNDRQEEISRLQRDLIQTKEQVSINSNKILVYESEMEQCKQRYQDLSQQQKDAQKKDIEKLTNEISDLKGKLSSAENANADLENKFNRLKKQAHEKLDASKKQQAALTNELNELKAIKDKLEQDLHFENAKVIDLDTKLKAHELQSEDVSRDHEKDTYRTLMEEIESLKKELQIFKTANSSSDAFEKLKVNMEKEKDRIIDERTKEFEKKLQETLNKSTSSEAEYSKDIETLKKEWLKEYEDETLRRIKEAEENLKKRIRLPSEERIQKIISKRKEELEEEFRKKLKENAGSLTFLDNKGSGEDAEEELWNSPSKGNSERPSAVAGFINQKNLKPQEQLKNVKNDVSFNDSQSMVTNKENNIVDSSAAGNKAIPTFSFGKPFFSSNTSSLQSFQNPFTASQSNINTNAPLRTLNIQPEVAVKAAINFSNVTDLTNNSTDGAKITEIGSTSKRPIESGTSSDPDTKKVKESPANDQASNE
UniProt P40477: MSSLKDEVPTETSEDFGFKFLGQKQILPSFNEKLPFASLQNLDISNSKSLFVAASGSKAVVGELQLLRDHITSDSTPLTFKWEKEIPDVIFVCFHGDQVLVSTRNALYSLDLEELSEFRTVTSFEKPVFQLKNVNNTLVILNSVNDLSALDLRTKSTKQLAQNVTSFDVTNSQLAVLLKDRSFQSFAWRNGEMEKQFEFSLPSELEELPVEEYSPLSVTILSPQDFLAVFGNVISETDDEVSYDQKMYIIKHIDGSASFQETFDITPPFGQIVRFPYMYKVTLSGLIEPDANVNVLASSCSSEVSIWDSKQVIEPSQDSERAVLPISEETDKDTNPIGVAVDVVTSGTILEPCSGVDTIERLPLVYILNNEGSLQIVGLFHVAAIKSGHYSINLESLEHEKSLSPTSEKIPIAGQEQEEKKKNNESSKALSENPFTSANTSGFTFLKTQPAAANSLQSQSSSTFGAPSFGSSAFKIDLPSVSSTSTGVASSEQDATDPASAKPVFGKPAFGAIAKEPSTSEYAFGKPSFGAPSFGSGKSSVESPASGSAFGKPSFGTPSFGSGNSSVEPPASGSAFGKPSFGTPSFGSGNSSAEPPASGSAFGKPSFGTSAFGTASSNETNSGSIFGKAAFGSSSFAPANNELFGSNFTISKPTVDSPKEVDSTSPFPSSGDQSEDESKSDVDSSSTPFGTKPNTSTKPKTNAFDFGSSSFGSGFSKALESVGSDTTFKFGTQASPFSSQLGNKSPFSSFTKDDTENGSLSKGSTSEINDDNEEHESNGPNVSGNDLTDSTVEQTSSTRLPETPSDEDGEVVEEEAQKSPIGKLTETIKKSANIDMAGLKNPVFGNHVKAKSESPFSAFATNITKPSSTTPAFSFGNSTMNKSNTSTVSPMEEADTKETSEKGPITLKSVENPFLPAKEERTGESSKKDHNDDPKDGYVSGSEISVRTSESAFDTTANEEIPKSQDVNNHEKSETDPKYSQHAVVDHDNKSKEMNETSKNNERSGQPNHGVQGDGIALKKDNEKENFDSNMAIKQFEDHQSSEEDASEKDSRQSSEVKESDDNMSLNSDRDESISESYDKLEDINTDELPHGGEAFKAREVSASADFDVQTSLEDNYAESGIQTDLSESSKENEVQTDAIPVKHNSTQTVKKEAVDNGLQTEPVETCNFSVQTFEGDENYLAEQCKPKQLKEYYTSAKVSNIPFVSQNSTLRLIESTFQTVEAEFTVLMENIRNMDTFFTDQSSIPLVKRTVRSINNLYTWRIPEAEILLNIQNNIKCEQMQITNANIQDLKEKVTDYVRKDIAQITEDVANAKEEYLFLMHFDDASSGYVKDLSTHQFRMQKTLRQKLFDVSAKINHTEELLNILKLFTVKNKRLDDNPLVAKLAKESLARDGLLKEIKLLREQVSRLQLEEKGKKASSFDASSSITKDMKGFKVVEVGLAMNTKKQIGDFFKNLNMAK
UniProt P39685: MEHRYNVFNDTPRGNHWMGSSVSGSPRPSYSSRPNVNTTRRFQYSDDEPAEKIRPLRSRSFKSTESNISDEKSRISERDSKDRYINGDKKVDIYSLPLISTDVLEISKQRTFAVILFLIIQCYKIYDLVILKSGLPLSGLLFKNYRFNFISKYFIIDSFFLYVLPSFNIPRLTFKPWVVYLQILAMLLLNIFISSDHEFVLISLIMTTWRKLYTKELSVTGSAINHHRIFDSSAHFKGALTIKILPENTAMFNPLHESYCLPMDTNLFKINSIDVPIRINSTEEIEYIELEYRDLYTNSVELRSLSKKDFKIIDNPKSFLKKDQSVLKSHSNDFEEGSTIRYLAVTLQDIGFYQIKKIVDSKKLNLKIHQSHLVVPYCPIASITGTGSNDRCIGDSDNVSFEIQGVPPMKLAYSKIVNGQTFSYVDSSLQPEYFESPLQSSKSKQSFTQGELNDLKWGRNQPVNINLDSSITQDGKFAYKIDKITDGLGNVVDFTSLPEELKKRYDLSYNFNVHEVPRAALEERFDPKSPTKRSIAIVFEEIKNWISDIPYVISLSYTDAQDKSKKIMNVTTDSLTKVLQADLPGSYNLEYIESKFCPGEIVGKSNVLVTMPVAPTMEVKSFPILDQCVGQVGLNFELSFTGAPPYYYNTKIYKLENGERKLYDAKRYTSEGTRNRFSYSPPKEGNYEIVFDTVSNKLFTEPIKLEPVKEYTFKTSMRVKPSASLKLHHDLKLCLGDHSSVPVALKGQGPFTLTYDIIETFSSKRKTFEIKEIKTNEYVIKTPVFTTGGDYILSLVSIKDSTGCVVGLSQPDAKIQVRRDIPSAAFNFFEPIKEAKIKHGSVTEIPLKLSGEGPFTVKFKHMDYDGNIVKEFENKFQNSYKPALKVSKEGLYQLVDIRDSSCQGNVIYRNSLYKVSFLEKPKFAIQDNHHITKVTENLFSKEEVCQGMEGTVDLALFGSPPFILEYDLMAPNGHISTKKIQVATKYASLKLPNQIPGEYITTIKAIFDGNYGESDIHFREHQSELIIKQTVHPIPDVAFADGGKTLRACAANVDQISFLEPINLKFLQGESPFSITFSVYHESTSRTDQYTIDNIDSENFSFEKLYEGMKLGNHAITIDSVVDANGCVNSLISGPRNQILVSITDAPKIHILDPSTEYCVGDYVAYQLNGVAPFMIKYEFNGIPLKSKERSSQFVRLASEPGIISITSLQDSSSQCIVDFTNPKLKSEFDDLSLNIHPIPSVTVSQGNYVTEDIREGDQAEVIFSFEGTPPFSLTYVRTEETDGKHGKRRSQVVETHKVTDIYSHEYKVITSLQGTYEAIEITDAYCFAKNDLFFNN

T1: Brl1-ZZ (S. cerevisiae) (UniProt P38770)
T1 sequence: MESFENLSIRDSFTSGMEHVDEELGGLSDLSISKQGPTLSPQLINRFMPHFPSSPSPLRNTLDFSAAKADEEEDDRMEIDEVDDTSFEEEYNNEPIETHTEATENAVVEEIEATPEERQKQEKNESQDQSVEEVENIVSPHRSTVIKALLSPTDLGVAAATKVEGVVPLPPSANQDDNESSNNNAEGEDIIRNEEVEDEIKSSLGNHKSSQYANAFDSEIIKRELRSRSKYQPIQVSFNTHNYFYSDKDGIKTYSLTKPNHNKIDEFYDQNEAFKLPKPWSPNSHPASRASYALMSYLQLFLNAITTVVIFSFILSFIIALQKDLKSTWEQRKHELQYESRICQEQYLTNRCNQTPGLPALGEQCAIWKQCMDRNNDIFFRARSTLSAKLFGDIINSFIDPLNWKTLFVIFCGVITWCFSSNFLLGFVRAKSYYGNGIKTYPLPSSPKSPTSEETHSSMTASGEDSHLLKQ


Legend:
Experiment in all cases: affinity purification with mass spectrometry
[1] = target: Nup170-ZZ (S. cerevisiae) (UniProt P38181)
Brl1-ZZ (S. cerevisiae) [2] = target: T1, Brl1-ZZ (S. cerevisiae)
Brl1-ZZ (S. cerevisiae) [3] = target: T1, Brl1-ZZ (S. cerevisiae); remark: listed apart in the source

| binding [1] | binding (Brl1-ZZ (S. cerevisiae) [2]) | binding (Brl1-ZZ (S. cerevisiae) [3]) | Molecule |
| --- | --- | --- | --- |
| binds | – | – | Mlp1 (from UniProt Q02455 1-1875) |
| binds | – | – | Mlp2 (from UniProt P40457 1-1679) |
| – | binds | – | Nup159 (from UniProt P40477 1-1460) |
| – | binds | – | Pom152 (from UniProt P39685 1-1337) |
| – | – | binds | Kap123 (protein, UniProt P40069 1-1113) MDQQFLSQLEQTLHAITSGVGLKEATKTLQTQFYTQPTTLPALIHILQNGSDDSLKQLAGVEARKLVSKHWNAIDESTRASIKTSLLQTAFSEPKENVRHSNARVIASIGTEELDGNKWPDLVPNLIQTASGEDVQTRQTAIFILFSLLEDFTSSLSGHIDDFLALFSQTINDPSSLEIRSLSAQALNHVSALIEEQETINPVQAQKFAASIPSVVNVLDAVIKADDTMNAKLIFNCLNDFLLLDSQLTGNFIVDLIKLSLQIAVNSEIDEDVRVFALQFIISSLSYRKSKVSQSKLGPEITVAALKVACEEIDVDDELNNEDETGENEENTPSSSAIRLLAFASSELPPSQVASVIVEHIPAMLQSANVFERRAILLAISVAVTGSPDYILSQFDKIIPATINGLKDTEPIVKLAALKCIHQLTTDLQDEVAKFHEEYLPLIIDIIDSAKNIVIYNYATVALDGLLEFIAYDAIAKYLDPLMNKLFYMLESNESSKLRCAVVSAIGSAAFAAGSAFIPYFKTSVHYLEKFIQNCSQIEGMSEDDIELRANTFENISTMARAVRSDAFAEFAEPLVNSAYEAIKTDSARLRESGYAFIANLAKVYGENFAPFLKTILPEIFKTLELDEYQFNFDGDAEDLAAFADSANEEELQNKFTVNTGISYEKEVASAALSELALGTKEHFLPYVEQSLKVLNEQVDESYGLRETALNTIWNVVKSVLLASKVEPESYPKGIPASSYVNADVLAVIQAARETSMGNLSDEFETSMVITVMEDFANMIKQFGAIIIMDNGDSSMLEALCMQVLSVLKGTHTCQTIDIEEDVPRDEELDASETEATLQDVALEVLVSLSQALAGDFAKVFDNFRPVVFGLFQSKSKNKRSSAVGAASELALGMKEQNPFVHEMLEALVIRLTSDKSLEVRGNAAYGVGLLCEYASMDISAVYEPVLKALYELLSAADQKALAAEDDEATREIIDRAYANASGCVARMALKNSALVPLEQTVPALLAHLPLNTGFEEYNPIFELIMKLYQENSPVITNETPRIIEIFSAVFTKENDRIKLEKESTLGREENMERLKQFQTEEMKHKVIELLKYLNTTYNGIVAQNPVLAAVIA |
| – | – | binds | Mex67 (protein, UniProt Q99257 1-599) MSGFHNVGNINMMAQQQMQQNRIKISVRNWQNATMNDLINFISRNARVAVYDAHVEGPLVIGYVNSKAEAESLMKWNGVRFAGSNLKFELLDNNGASAGTSDTISFLRGVLLKRYDPQTKLLNLGALHSDPELIQKGVFSSISTQSKMFPAMMKLASTEKSLIVESVNLADNQLKDISAISTLAQTFPNLKNLCLANNQIFRFRSLEVWKNKFKDLRELLMTNNPITTDKLYRTEMLRLFPKLVVLDNVIVRDEQKLQTVYSLPMKIQQFFFENDALGQSSTDFATNFLNLWDNNREQLLNLYSPQSQFSVSVDSTIPPSTVTDSDQTPAFGYYMSSSRNISKVSSEKSIQQRLSIGQESINSIFKTLPKTKHHLQEQPNEYSMETISYPQINGFVITLHGFFEETGKPELESNKKTGKNNYQKNRRYNHGYNSTSNNKLSKKSFDRTWVIVPMNNSVIIASDLLTVRAYSTGAWKTASIAIAQPPQQQASVLPQVASMNPNITTPPQPQPSVVPGGMSIPGAPQGAMVMAPTLQLPPDVQSRLNPVQLELLNKLHLETKLNAEYTFMLAEQSNWNYEVAIKGFQSSMNGIPREAFVQF |

Read-outs that look alike come from different tables or passages of the source. No constants are given. Whether binding was seen depends on the method and setting. Binding seen in cells or lysates may run through a third protein. Here binding means that the protein was enriched with, or labelled near, the bait; the list need not be complete.
